Data published in PubChem BioAssay AID2685 (National Center for Advancing Translational Sciences (NCATS), 2010).
This is one part of the list. Further columns of the screen follow, without active or inactive calls. Most of these compounds were active or inconclusive in the main read-out, so they are no random draw. Potencies come from curve fits of mixed quality, noted in brackets.

Assay: qHTS Assay for Lipid Storage Modulators in Drosophila S3 Cells;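 for cell number change: cells counted by Cell Tracker Red CMTPX staining in the red channel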
Conditions: BODIPY lipid droplet fluorescence, 18-24 h; for cell number change: measured here: cell count max response, cells fed with added oleic acid
Outline: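 Drosophila S3 cells loaded with oleic acid (400 uM, as added) and compounds at several concentrations; lipid droplets imaged by 488-nm laser-scanning cytometry, 500–530 nm intensity and object ratio to cell channel. Percent activity normalized to 20 uM Triacsin C.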

[1] = measured here: lipid fluorescence (Fed channel) AC50, cells fed with added oleic acid
[2] = measured here: cell number channel AC50, cells fed with added oleic acid

O=C1CC(=C(c2ccccc2)c2ccccc2)C(=O)N1CCCN1CCN(c2cccc(Cl)c2)CC1
cell number change: 6.26% | AC50 [1]: 10.3 µM [falling, partial curve]

Brc1ccc(/C=N/Nc2ccc3ccccc3n2)cc1
cell number change: -53.5% | AC50 [2]: 23.1 µM [falling, partial curve] | AC50 [1]: 18.4 µM [falling, partial curve]

O=C(Nc1ccc(Cl)cc1)c1cc(-c2cccs2)on1
cell number change: 41.2% | AC50 [2]: 0.092 µM [rising, full curve, poor fit] | AC50 [1]: 16.4 µM [rising, partial curve, poor fit]

O=C(NCCNc1ccc([N+](=O)[O-])cc1)c1cccc2c(Br)cccc12
cell number change: 4.42% | AC50 [1]: 6.51 µM [rising, partial curve, poor fit]

Cc1ccc(NC(=O)c2cc(S(=O)(=O)N3CCCCC3)ccc2N2CCOCC2)cc1F
cell number change: 18.4% | AC50 [2]: 1.64 µM [rising, partial curve, poor fit] | AC50 [1]: 6.51 µM [rising, single point]

COc1ccc(OCc2nnc(SCC(N)=O)n2-c2ccccc2OC)cc1
cell number change: 12.9% | AC50 [1]: 29.1 µM [rising, single point]

COc1ccc2[nH]c(C(=O)Nc3cccc(C)n3)cc2c1
cell number change: -6.12% | AC50 [1]: 18.4 µM [falling, partial curve]

CC(C)(C)OC(=O)N[C@@H](COCc1ccccc1)C(=O)N[C@@H](CO)[C@H](O)[C@@H]1C[C@@H]1C(=O)NC1CCCCC1
cell number change: 11.1%

C/C(CC(=O)Nc1ccccn1)=N\NC(=O)c1ccc([N+](=O)[O-])cc1Cl
cell number change: 0.435% | AC50 [1]: 6.51 µM [falling, single point]

CC1(C)Cc2c(cnn2-c2cccc(F)c2)C(NC(=O)c2csnn2)C1 (stereo not drawn)
cell number change: -18.1% | AC50 [1]: 0.146 µM [falling, full curve]

O=C(NCC1CC1)Nc1ccc(Cl)cc1
cell number change: -4.17% | AC50 [1]: 29.1 µM [falling, single point]

CN(C(=O)COC(=O)COc1ccc(Cl)cc1Cl)c1c(N)n(Cc2ccccc2)c(=O)[nH]c1=O
cell number change: -26.1%

CC(Cc1ccccc1)NC(=O)C1CCCNC1=O (stereo not drawn)
cell number change: -21.9% | AC50 [2]: 2.31 µM [falling, full curve, poor fit] | AC50 [1]: 1.64 µM [falling, full curve, poor fit]

CN1CCN(C(=O)C2CCCN(S(=O)(=O)c3ccc(Br)cc3)C2)CC1 (stereo not drawn)
cell number change: 8.96%

COC(=O)c1nnn(-c2cccc(Cl)c2)c1C(=O)OC
cell number change: 33.1% | AC50 [1]: 0.411 µM [rising, full curve, poor fit]

Cc1cccc(-n2c(CNC(=O)c3ccc(S(=O)(=O)N4CCCC4)cc3)n[nH]c2=S)c1
cell number change: -25.5%

CCc1cccc(C)c1NC(=O)CCCN1C(=O)NC(C)(C)C1=O
cell number change: -1.55% | AC50 [1]: 29.1 µM [falling, partial curve, poor fit]

O=C(O)C(C(=O)/C=C/c1ccco1)=C1SCCS1
cell number change: 1.55% | AC50 [1]: 0.0651 µM [falling, full curve, poor fit]

COc1ccc(NS(=O)(=O)c2cc(OCC(N)=O)c(C)cc2Cl)cc1
AC50 [1]: 29.1 µM [rising, single point]

Cc1cccn2c(=O)c(C=O)c(N3CCCCCC3)nc12
cell number change: 3.1% | AC50 [2]: 0.92 µM [rising, partial curve]

Cc1cc2c(=O)n(C)c(SCC(=O)Nc3ccccc3)nc2s1
cell number change: 13.5% | AC50 [1]: 0.58 µM [rising, full curve, poor fit]

O=C(c1ccco1)N1CCN(C(=O)c2cnn3cccnc23)CC1
cell number change: -40.4% | AC50 [2]: 32.6 µM [falling, partial curve] | AC50 [1]: 0.231 µM [falling, partial curve, poor fit]

CCN(CCCNS(=O)(=O)c1ccc2c(c1)CCN2C(C)=O)c1cccc(C)c1
AC50 [2]: 0.092 µM [rising, single point]

CS(=O)(=O)N(CC(=O)NCc1ccc2c(c1)OCO2)c1ccc(Cl)cc1
cell number change: -7.65% | AC50 [2]: 0.0326 µM [falling, full curve, poor fit] | AC50 [1]: 0.366 µM [rising, partial curve, poor fit]

COc1cc(OC)cc(C(=O)Nc2ccc(N(C)C)c3ccccc23)c1
cell number change: 6.3%

CCOc1ccc(NC(=O)CSc2nc(NS(=O)(=O)c3ccc(C)cc3)cc(=O)[nH]2)cc1
cell number change: -0.806%

CSc1ccc(CN(C)CC(=O)Nc2c(F)cccc2F)cc1
cell number change: 16% | AC50 [2]: 0.146 µM [falling, full curve, poor fit] | AC50 [1]: 0.146 µM [falling, full curve, poor fit]

O=C(Nc1ccc(Cl)cn1)C1CCCN(c2ncnc3c2nc2n3CCCCC2)C1 (stereo not drawn)
AC50 [1]: 0.58 µM [rising, single point]

O=C(NC1(C(F)(F)F)NC(=O)N(Cc2cccnc2)C1=O)c1cccs1 (stereo not drawn)
cell number change: 14.4% | AC50 [1]: 29.1 µM [rising, single point]

O=c1c2ccccc2nc2c3ccccc3c(NCCN3CCOCC3)nn12
cell number change: 39.4% | AC50 [2]: 1.3 µM [rising, full curve] | AC50 [1]: 6.51 µM [rising, partial curve, poor fit]

Nc1ccc2oc3ccc(N)cc3c(=O)c2c1
cell number change: 57.6% | AC50 [2]: 2.91 µM [rising, full curve] | AC50 [1]: 8.2 µM [rising, partial curve]

COc1ccc(N2CCN(CCCNC(=O)C(=O)c3c(C)[nH]c4ccccc34)CC2)cc1
cell number change: 30.7% | AC50 [2]: 16.4 µM [rising, single point]

COc1ccc(NC(=O)CCS(=O)(=O)c2ccc(OC)cc2)cc1
cell number change: 101% | AC50 [2]: 18.4 µM [rising, partial curve] | AC50 [1]: 18.4 µM [rising, partial curve]

CCCOC(=O)c1ccc(Oc2cn[nH]c2-c2ccc(OCC)cc2O)cc1
cell number change: -98.6% | AC50 [2]: 10.3 µM [falling, partial curve] | AC50 [1]: 32.6 µM [falling, single point]

CCCN(C(=O)Cc1nc(N)n[nH]1)C1(C(=O)Nc2ccccc2C)CCCCC1
AC50 [2]: 1.84 µM [falling, partial curve, poor fit]

Cc1ccc(C(=O)COC(=O)CNC(=O)c2cccs2)cc1C
cell number change: 14.2% | AC50 [1]: 23.1 µM [rising, single point]

Cc1ccc(CSc2ccc(S(=O)(=O)N3CCOCC3)cn2)cc1
cell number change: -32% | AC50 [2]: 29.1 µM [falling, single point] | AC50 [1]: 6.51 µM [rising, single point]

Cc1nc(S/C(=C\c2ccc(OCc3ccccc3Cl)cc2)C(=O)O)n[nH]1
cell number change: -6.32%

O=C(Nc1ccc(Cl)cc1)/C(=C/c1ccc([N+](=O)[O-])cc1)c1nc2ccccc2s1
cell number change: -62.1% | AC50 [1]: 14.1 µM [falling, partial curve]

O=C1CN(c2ccc(Cl)cc2)C(=O)CN1NC(=S)Nc1ccc(Cl)cc1
cell number change: -16%

COc1ccc(S(=O)(=O)NCCc2c(C)nn(C)c2Oc2ccccc2)cc1
cell number change: 85.7% | AC50 [2]: 29.1 µM [rising, single point] | AC50 [1]: 3.66 µM [falling, partial curve]

O=C(Nc1ccn(-c2ccccc2)n1)c1ccc(Cl)cc1
cell number change: 12.9% | AC50 [1]: 7.31 µM [rising, partial curve, poor fit]

N#CC1=C(N)OC2=C(C(=O)CCC2)[C@]12C(=O)N(CC(N)=O)c1ccccc12
cell number change: -20.1%

Cc1ccc(N2C(=O)C3C(C2=O)N2C(c4cccs4)C4C(=O)N(c5ccc(C)cc5)C(=O)C4N2C3c2cccs2)cc1 (stereo not drawn)
cell number change: 12.9% | AC50 [1]: 4.61 µM [falling, single point]

Cc1cc(S(=O)(=O)NCC(=O)O)ccc1F
cell number change: -28.7% | AC50 [1]: 23.1 µM [falling, partial curve]

O=C(Cc1cccs1)N(Cc1ccco1)C1(C(=O)NC2CCCC2)CCCCC1
AC50 [1]: 1.64 µM [falling, partial curve, poor fit]

O=C(Nc1cccc(Cl)c1)OCc1cncs1
cell number change: 7.91% | AC50 [1]: 0.103 µM [rising, full curve, poor fit]

c1ccc(C2C/C(=N\N3CCOCC3)c3ccccc3O2)cc1 (stereo not drawn)
cell number change: 31.4% | AC50 [2]: 2.91 µM [rising, partial curve] | AC50 [1]: 3.26 µM [rising, full curve]

NC(=O)COc1ccc2oc(=O)cc(-c3cc4ccccc4o3)c2c1
cell number change: -5.93%

Cc1cc(C(C)c2ccccc2)c(O)c(CN2CCOCC2)c1C (stereo not drawn)
cell number change: -23.9% | AC50 [1]: 5.17 µM [falling, full curve, poor fit]

O=C(CNC(=O)c1cccs1)NCCc1ccco1
cell number change: 7.95% | AC50 [1]: 4.11 µM [rising, full curve, poor fit]

COc1cccc(-n2c(SC)nnc2-c2c[nH]c3ccccc23)c1
AC50 [1]: 0.103 µM [rising, single point]

Cc1nn(Cc2c(Cl)cccc2Cl)c(Cl)c1/C=C/C(=O)OCC(=O)NCC(F)(F)F
cell number change: -21.3% | AC50 [1]: 23.1 µM [falling, single point]

COc1ccc(NC(=O)CSc2ccccn2)c([N+](=O)[O-])c1
AC50 [2]: 0.92 µM [falling, full curve] | AC50 [1]: 0.82 µM [falling, full curve]

Cc1cc(C)nc(N(C#N)Cc2ccc(Cl)cc2)n1
cell number change: 8.59% | AC50 [1]: 0.92 µM [rising, partial curve]

COc1ccc(CCNS(=O)(=O)c2ccccc2)cc1OC
cell number change: 3.35%

CCCCc1nnc(SCC(=O)NC2CCCCC2)n1C
cell number change: -13.6%

COc1ccc([C@H]2CC(=O)C=C(c3cc(C(F)(F)F)cc(C(F)(F)F)c3)C2)cc1
cell number change: -15.8%

CCOC(=O)Nc1ccc(C)cc1Br
cell number change: 147% | AC50 [2]: 29.1 µM [rising, partial curve, poor fit]
